Source: PubChem BioAssay AID686943 (Drosophila RNAi Screening Center, 2013)
In all, the deposit lists about 23,000 reagents; shown is a random part of those that have a named target and a result. 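Extra replicates exist only for a retested subset of genes; insulin dose and duration not given; both raised and lowered dpERK matter.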 Names joined by + are all predicted targets of the reagent. Not all columns of the deposit are shown. Not stated in the record: the amount of reagent, the time to read-out.

Assay: 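Fly genes whose loss alters ERK activation after insulin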 (primary screen)
Cell system: Drosophila S2R+ haemocyte-like cells expressing YFP-tagged ERK (Rolled)
Reagents: long dsRNA against Drosophila genes
Challenge: insulin stimulation versus unstimulated cells; dose and duration not given
Measured: 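Antibody staining for doubly phosphorylated ERK divided by ERK-YFP signal, as plate z-scores, in insulin-treated and untreated cells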
Scale: replicate 1, z-score of dpERK with insulin: higher = more active ERK per ERK-YFP after insulin

gene,amplicon,"replicate 1, z-score of dpERK with insulin"
CG14177 (retired record) (GeneID 39113),DRSC10176,-0.13
lncRNA:CR43302 (GeneID 12798065),DRSC12668,-4.26
CG3640 (GeneID 37942),DRSC04399,-0.33
Gld (GeneID 40875),DRSC12595,0.38
BomS2 (GeneID 49802),DRSC21488,0.76
CG5567 (GeneID 39986),DRSC10517,0.84
CG1677 (GeneID 31662),DRSC18116,-0.9
CG33017 (GeneID 36811),DRSC06573,-0.26
CG33017 (GeneID 36811),DRSC06574,-0.22
drpr (GeneID 38218),DRSC08143,0
drpr (GeneID 38218),DRSC08525,-0.16
Naus (GeneID 37076),DRSC06011,-0.04
Naus (GeneID 37076),DRSC06469,-1.61
Yod1 (GeneID 38603),DRSC10433,0.48
CG11608 (GeneID 41556),DRSC14334,0.17
CG6937 (GeneID 42662),DRSC16140,-0.25
hfw (GeneID 31120),DRSC18506,-0.59
hang (GeneID 32613),DRSC19901,-0.49
hang (GeneID 32613),DRSC19902,-0.47
RpL28 + snoRNA:Or-CD12,DRSC08293,-1.46
Cngl (GeneID 32468),DRSC19089,-0.1
Cngl (GeneID 32468),DRSC19795,0.26
Cngl (GeneID 32468),DRSC20318,-4.06
l(2)dtl (GeneID 46326),DRSC04697,-1.99
Syx6 (GeneID 40373),DRSC07032,-0.87
Cad96Cb (GeneID 43033),DRSC14243,-2.17
Cad96Cb (GeneID 43033),DRSC14665,-0.06
mbl (GeneID 36945),DRSC05657,-0.26
mbl (GeneID 36945),DRSC06449,1.18
mbl (GeneID 36945),DRSC07651,-3.12
MED7 (GeneID 41288),DRSC16059,1.27
CG43066 (GeneID 37129),DRSC06927,0.56
rg (GeneID 44531),DRSC17377,0.4
rg (GeneID 44531),DRSC17726,0.26
rg (GeneID 44531),DRSC18049,0.33
CG5274 (GeneID 40257),DRSC11774,-0.57
Jhbp7 (GeneID 43035),DRSC14408,0.12

Next part, starting with the last 7 of the part before.
gene,amplicon,"replicate 1, z-score of dpERK with insulin"
MED7 (GeneID 41288),DRSC16059,1.27
CG43066 (GeneID 37129),DRSC06927,0.56
rg (GeneID 44531),DRSC17377,0.4
rg (GeneID 44531),DRSC17726,0.26
rg (GeneID 44531),DRSC18049,0.33
CG5274 (GeneID 40257),DRSC11774,-0.57
Jhbp7 (GeneID 43035),DRSC14408,0.12
GstD10 (GeneID 59240),DRSC15346,-0.54
CG10343 (GeneID 35127),DRSC02041,0.74
Gar1 (GeneID 37397),DRSC04441,0.56
Arp8 (GeneID 32769),DRSC20059,-0.13
Cyp12d1-d + Cyp12d1-p,DRSC21507,0.7
Pgant8 (GeneID 39715),DRSC10801,0.34
Uxs (GeneID 38911),DRSC10941,-0.27
His-Psi:CR31616 + His-Psi:CR31615,DRSC03760,-7.77
janB (GeneID 43568),DRSC16973,-0.51
CG33331 + CG33332,DRSC22928,0.07
tacc (GeneID 40589),DRSC12019,0.3
tacc (GeneID 40589),DRSC12388,-0.24
dao (GeneID 34891),DRSC01960,-0.66
Debcl (GeneID 53585),DRSC04965,-0.38
Mcm6 (GeneID 31603),DRSC18680,0.28
CG31872 (GeneID 34458),DRSC02568,-0.53
CG31872 (GeneID 34458),DRSC02572,0.74
Acsx1R (GeneID 42352),DRSC14339,0.45
CG4951 (GeneID 43355),DRSC15682,-0.29
CG3815 (GeneID 31571),DRSC18324,0.13
